Results taken from paper PMC5638340.
Results are given in words; binding and its absence hold for the method and conditions named. Some results given as binding are weak or reduced against the parent protein; the word gives no strength.

By UniProt entry, the sequences of proteins in these tests, tags left out. Residues count along the entry.
UniProt P36544, residues 23-502: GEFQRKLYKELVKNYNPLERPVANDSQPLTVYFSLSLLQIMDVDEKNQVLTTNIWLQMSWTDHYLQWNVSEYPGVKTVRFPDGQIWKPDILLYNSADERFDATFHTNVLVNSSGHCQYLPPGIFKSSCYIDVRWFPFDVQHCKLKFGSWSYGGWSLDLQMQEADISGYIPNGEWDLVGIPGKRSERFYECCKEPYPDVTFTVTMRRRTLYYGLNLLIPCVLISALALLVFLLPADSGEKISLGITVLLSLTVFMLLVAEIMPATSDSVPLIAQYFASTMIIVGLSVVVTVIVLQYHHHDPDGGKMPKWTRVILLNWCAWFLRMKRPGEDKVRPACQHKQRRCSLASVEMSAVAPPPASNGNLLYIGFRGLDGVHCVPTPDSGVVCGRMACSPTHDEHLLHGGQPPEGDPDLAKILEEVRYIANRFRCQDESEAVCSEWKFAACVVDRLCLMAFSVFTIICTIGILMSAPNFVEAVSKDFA
UniProt P60615, residues 22-95: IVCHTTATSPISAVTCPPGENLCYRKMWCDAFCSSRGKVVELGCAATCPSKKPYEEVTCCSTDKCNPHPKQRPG

Target: Human α7 nAChR expressed in GH4C1 cells (human) (UniProt P36544)
Test: radioligand binding; only the binder purified

Mono-iodinated (3-[125I]iodotyrosyl54)-α-bungarotoxin (from UniProt P60615 22-95) (ligand)
binding: binds
